Experiment: soluble on expression in E. coli; label from the status in PepcDB or PDB records

| Sequence | soluble on expression in E. coli |
| --- | --- |
| GSHMATMALSTAGSGGPPVNHAHAVSVWEFESRGKWLPYSPAVSQHLERAHAKKLTRVMLSDADPSLEQYYVNVRTMTQESEAETAGSGLLTIGVRRMFYAPSSPAGKGTKWEWSGGSADSNNDWRPYNMHVQSIIEDAWARGEQTLDLSNTHIGLPYTINFSNLTQLRQPSGPMRSIRRTQQAPYPLVKLTPQQANQLKSNSASVSSQYNTLPKLGDTKSLHRVPMTRQQHPLPTSHQV | soluble |
| MAAQYGSMSFNPSTPGASYGPGRQEPRNSQLRIVLVGKTGAGKSATGNSILGRKVFHSGTAAKSITKKCEKRSSSWKETELVVVDTPGIFDTEVPNAETSKEIIRCILLTSPGPHALLLVVPLGRYTEEEHKATEKILKMFGERARSFMILIFTRKDDLGDTNLHDYLREAPEDIQDLMDIFGDRYCALNNKATGAEQEAQRAQLLGLIQRVVRENKEGCYTNRMYQRAEEEIQKQTQAMQELHRVELEREKARIREEYEEKIRKLEDKVEQEKRKKQMEKKLAEQEAHYAVRQQRARTEVESKDGILELIMTALQIASFILLRLFAED | soluble |
| MAGKFCSFCGRDIQQVERLIAGPNNVYICNECIDLFHDLLRSDRKVRIKNEIKEIPTPAEIKAELDKYIIGQERAKKVLSVAVYNHYKRVFSNLDSNDVEIEKSNVLLIGPTGTGKTYLARILAKILNVPFAIADATPLTEAGYVGEDVENVVLRLLEAANFDVERAQYGIIYIDEIDKIAKKSPNPSITRDVSGEGVQQALLKILEGTIANVPPQGGRKHPYQEFIKVDTRNILFIAGGAFDGLEEIIKRRIQSTTMGFGAEIKSKKEMRLGEILKHVTPDDLVQYGLIPEFVGRFPVIATLDDLSEDDLVRILKEPKNAVVRQYQKLFEIDGVKLEVTDEALRIIARKALKRGTGARALKNVFEEMMIDMMFELPNLKNVEKVVITEEVALGKEKPIVVMRESA | soluble |
| MAHHHHHHMALKRITKELQDLNKDPPTNCSAGPIGDDLFFWQATIMGPGDSPYENGVYFLNIKFPPDYPFKPPKIIFTTKIYHPNINTAGAICLDILKDQWSPALTISKVLLSISSLLTDPNADDPLVPEIAHVYKTDRTKYHQTAKAWTQKYAQ | soluble |
| MAHHHHHHMSHTAEDARVFREILQRDEECKHCFECGALSPQWCDVNHGVFVCLDCSGVHRSLGVHLSFVRSPTMDGWTNWRPEKLRQMQIGGNRRAREYFERNGVPKAPIRERYQSLGALRYGAMLEAEALGQPFDESSWAPPEWYERMVQSERNRPNGEGMPPQAPQQHRPINGMWGEGHGSTGSGGGKEWLDTLSGGWSVFSKKTKEIAETAGAQARSLITETNVEGVKGTLASGWGAISGFATQMSSKLLNKNQEDDLSVLSDMTQHVKTAVQDDNQGLVGRNMTQSHSEVGNAAFKGQANPYDGDFQSKKD | not soluble |
| MAQDIFMDPWQSATSFAMEDEDMGMPSGKYARMEDEMGENKERFARENHSEIERRRRNKMTHYINELAEMVPQCASLGRKPDKLTILRMAVSHMKGIRGHTAQDETSYKPSFLTDQELKHLILEAANGFLFVVCCQTGKVLYVADSITPVLNLKQEDWLQRNLNELIHPDDQDKIRDQLCGSEVSVNKVLDLKSGSVKREGASTRVHMSCRRGFICRMRVGALEPLHRLRNRRPLFQHAGQNYVVMHCTGYIKNAPPQGINAPASSCLVAIARLQVASMPVCADPTSTNQFSVRVSEDGKMTFIDARVSDLIGLSSDQLIGRYWWNLAHPADEKTLQDSFVALLSDQPMRINIRVRTSTDYIPCTVSAYKFMNPYSEQFEYVVATHQIAPQEDINNWVTAPTVPQPQASEFGELGGAPSAVDYGQSSSGGWRPEAQGAPQAQWQWDPMNGYNQ | not soluble |
| MEAYKIEHLNKSYADKTIFDNLDLSISEGEKIGLVGINGTGKSTLLKVIGGIDDDFTANVMHPNQYRIRYSSQKQDLNEDMTVFDAVLSSDTTTLRIIKQYEQAVQAYADDQSDKLFKRMMDAQDAMDQHDAWDYNAEIKTILSKLGIHDTTKYIKELSGGQQKRVVLAKTLIEQPDLLLLDEPTNHLDFESISWLINYVKQYPHTVLFVTHDRYFLNEVSTRIIELNRGKLASYPGNYESYIEMRAEREVTLQKQQQKQRALYKEELAWMRAGAKARTTKQQARINRFNDLENEVNQQYKDDKGELNLAYSRLGKQVFELEDLSKAINDKVLFEHLTEIIQKGERIGVVGPNGAGKTTLLNILSGEDQQFEGKLKTGQTVKVAYFKQTDETLDRDIRMIDYLREENEIAKEKDGTSVSITQLLERFLFPSATHGKKVYKLSGGEQKRLYLLRLLVHQPNVLLLDEPTNDLDTETLTILEDYIHTFGGTVITVSHDRYFLNKVAQSYWFIHDGQMEKIIGTFEDYESYKKSLDKNKSTLKQQSKSSTTVRKKNGLSYKEKLEYEQLMKRIEQAEVRMEEIDVLMIEASADYGKIKELNEEKEQLEIQYDLDITRWSELEEIKEQQ | not soluble |
| MEPSIKGDQEMLKIKKQGHQDLELGLTLLSRGTATSSELNLIDSFKTSSSSTSHHQHQQEQLADPRVFSCNYCQRKFYSSQALGGHQNAHKRERTLAKRGQYYKMTLSSLPSSAFAFGHGSVSRFASMASLPLHGSVNNRSTLGIQAHSTIHKPSFLGRQTTSLSHVFKQSIHQKPTIGKMLPEKFHLEVAGNNNSNMVAAKLERIGHFKSNQEDHNQFKKIDLTLKL | not soluble |
| METRQMAVDQTTGAVTNQTETSWHSIDWAKANREVKRLQVRIAKAVKEGRWGKVKALQWLLTHSFYGKALAVKRVTDNSGSRTPGVDGITWSTQEQKTQAIKSLRRRGYKPQPLRRVYIPKANGKQRPLGIPTMKDRAMQALYALALDSAVTSLLEHHHHHH | not soluble |
| MGHHHHHHSHMTTCEFEFIFLKEQVTRICNIAPLKAYFSVHKMGKILKKLSNFSFLTHRQSLTLSPRLECSGAISAHCNLHLLGSSNSAASASRVAGTTGACHHAQLIFVFLVETGFHHVGQDGLGLLTS | not soluble |
| MGSDKIHHHHHHMNEEQQVLQEQHQEQTQEQTQEQKETLPPQIERRIKKLISLGKKKGYITYEDIDKAFPPDFEGFDTNLIERIHEELEKHGINIVENEPEEEEISASSDEQELEELLEKESPEIHDSSNVRDSIKMYLKEIGKIPLLTPAQERELARRAQMGDKKAKEKLITSNLRLVVSIAKRYMGRGLSFQDLIQEGNIGLLKAVEKFDWRKGYKFSTYATWWIRQAITRAIADQARTIRIPVHMVETINKLNRLRREYYQKHGEEPSIEELAKMMGKPPEKIKEILEAAKETISLESPIGEDEDSSIEDFVADDSIASPKKEAMRMLMREELEKVLKTLSPREAMVLRMRYGLLDGKPKTLEEVGQYFNVTRERIRQIEVKALRKLRHPSRSKYLKSLLSLMDENEG | not soluble |
| MGSDKIHHHHHHMPDQAEHLRKNEPNIISVLSGKGGVGKSVIAVNLSLALKEKGLRVLLLDADVGFGSVEILLGFMAPKTLKDFFKSNVRIEDIVFETKYGVDVLSSGIDMEDLILFNLGDRRRFFDEFARLLRKYDYLVIDFPPGYNENLDQFYIQSDFLILVTSPEPTSIINTYTLIKLLSVKGITPEEIFLVMNMVRNMKEGRLAADRLKRVVERFVGFTIKNYFVIKEDQVVQRSVFLQEPFVRSHSRSQPSLAIYGLREKILKEPVQKKGFLNKIRQMLGIG | not soluble |
| MPQHKFLFTSESVSEGHPDKMCDQISDAVLDAHLAQDPHAKVACETVTKTGMIMLCGEITSKAVVDYQVLVRNVIKKIGYDDSSKGFDYKTCNVLVALEQQSPEIAAGVHVDKDSDDVGAGDQGIMFGYATDETEEAMPLTLLLSHKLNRKLHELRRSGELEWVRPDSKTQVTIEYASEGGACVPLRVHTVVISTQHSPDISLDDLRKELIEKVIKAVIPANLIDDKTIYHLNPCGSFIIGGPMGDAGLTGRKIIVDTYGGWGAHGGGAFSGKDPTKVDRSAAYAARWVAKSLVKAGLCRRCLVQVSYAIGVAKPLSVMVFSFGTSALSEEDLLTIVNDNFDLRPGKIIKNLDLKRPIYEPTAENGHFGHNNFPWEQPRNLKISADMLAKSQGPAQPDVIGIAH | not soluble |
| MRIILLGAPGAGKGTQAQFIMEKYGIPQISTGDMLRAAVKSGSELGKQAKDIMDAGKLVTDELVIALVKERIAQEDCRNGFLLDGFPRTIPQADAMKEAGINVDYVLEFDVPDELIVDRIVGRRVHAPSGRVYHVKFNPPKVEGKDDVTGEELTTRKDDQEETVRKRLVEYHQMTAPLIGYYSKEAEAGNTKYAKVDGTKPVAEVRADLEKILG | soluble |
| MSRIENESGFLSSDAASVGSEDDKVEMKKRNGTIPKEDHLKSMCNAYQSIIQHVGEDINRQGLLKTPERAAKAMMAFTKGYDDQLDELLNEAVFDEDHDEMVIVKDIEMFSLCEHHLVPFMGKVHIGYIPNKKVLGLSKLARIVEMFSRRLQVQERLTKQIATAMVQAVQPSGVAVVIEASHMCMVMRGVQKINASTTTSCMLGVFRDDPKTREEFLNLINKR | not soluble |
| MVKARKEGKVSKKLKQKPDYGPVKNRHTFRGSNHSMNPDRKPDAKDKSQRSKATINRLRMYKSFKPIRDSKGKILKAAPFQDTLASGTQARIEPNRKWFGNTRIIGQEQLQKFQANLGKVLSDPFQVVMKQTKLPISLLQEKAKTQRVHVTETESFEYTFGKKSLRKKAKLTEASLEEMSKSAEDRDVKYKPELDLSREKELGDRPENMNPLFRAGQSNRVWGELYKVIDSSDVVVQVVDARDPMGTRCRHVEEFLRKEKPHKHLVTVINKVDLVPTWVTRKWIGELSKEMPTIAFHASINNSFGKGAVINLLRQFAKLHPDRPQISVGFIGYPNVGKSSLVNTLRKKKVCKTAPIAGETKVWQYVMLMRRIYLIDSPGVVYPQGDSETQIILKGVVRVENVKDPENHVQGVLDRCKPEHLRRQYGIPEFTDVDDFLTKIAIKQGRLLKGGDPDIVAVSKVVLNEFQRGKLPYFVPPPGCEERAKKDFSQAPINEMCADDDEQLPLDAQLELDDVARNGGPDEDDDEAIDDEEQEELTEIGSTCSGLTDLSGISDLAGDLSDADDVADDDEKPSSSDSKTKKSKTDVASVRTRGKRGGKKANKAKLSGKTIVQAASEKKDKSVVEFAKPGATKTNMWRKKLEKRRKVKHQK | not soluble |
| RTEQQAASLEQTAASMEQLTATVKQNAENARQASHLALSASETAQRGGKVVDNVVQTMRDISTSSQKIADIISVIDGIAFQTNILALNAAVEAARAGEQGRGFAVVAGEVRNLAQRSAQAAREIKSLIEDSVGKVDVGSTLVESAGETMAEIVSAVTRVTDIMGEIASASDEQSRGIDQVGLAVAEMDRVTQQNAALVEQSAAAAAALEEQASRLTEAVAVFRIQQQ | soluble |

Source: the DeepSol protein solubility set
